The nature of this assay: Confirmation Concentration-Response Assay for Modulators of Lamin A Splicing. Particulars: HeLa lamin A splicing GFP/RFP minigene, Acumen, 48 h; for ratio activity: GFP/RFP ratio at top concentration; for ratio activity / RFP activity: at 46.1 µM; for RFP activity: RFP channel at top concentration. An outline of the steps: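 S3 HeLa cells stably expressing lamin A-EGFP splicing minigene and DsRed2, 600 cells/well in Opti-MEM with 2% FBS, compounds 48 h at 37C; laser-scanning cytometry (488 nm), GFP/RFP total intensity ratio analysed; 0.5% DMSO.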

Setting [1] is: measured here: GFP/RFP ratio splicing readout.
Where [2] appears, read: measured here: RFP viability/nonspecific counter channel.

The AC50 is the concentration at which the activity in the assay is half-maximal.

This is one part of the list. Shown are side measurements of this screen, not its main read-out; they come without a call. Compounds called inactive in the main read-out are mostly missing here. The note in brackets gives the kind of curve behind each potency; many fits are weak.

As to `Cc1noc(C)c1-c1ccc2ncnc(NCc3ccco3)c2c1`, the ratio activity is -45.5% and the RFP activity was 53.4%. Also, the AC50 under setting [1] was 3550 nM [falling, full curve]. Further, the AC50 under setting [2] is 15800 nM [rising, full curve, poor fit].
As for `Cc1cccc(/C=C(\c2nc3ccccc3[nH]2)S(=O)(=O)c2ccccc2)c1`, the ratio activity is -24.4% and the RFP activity is -66.4%. Further, under setting [1], the AC50 was 1410 nM [falling, full curve, poor fit]. The AC50 under setting [2] is 7940 nM [falling, full curve, poor fit].
Take `CCOC(=O)c1c(-c2cccc(C)c2)csc1NC(=O)c1c(-c2ccccc2)noc1C`: the ratio activity was -49.2% and the RFP activity came to 21.7%. Besides, the AC50 under setting [1] is 562 nM [falling, full curve]. Under setting [2], the AC50 was 200 nM [rising, full curve, poor fit].

For the origin of these results see PubChem BioAssay AID1498 (National Center for Advancing Translational Sciences (NCATS), 2009).
